From PMC10403576 come the findings set out here.

Protein sequences, listed by entry. Tags and fused reporters are not part of them. Residues count along the entry.
UniProt P09192, residues 2-330: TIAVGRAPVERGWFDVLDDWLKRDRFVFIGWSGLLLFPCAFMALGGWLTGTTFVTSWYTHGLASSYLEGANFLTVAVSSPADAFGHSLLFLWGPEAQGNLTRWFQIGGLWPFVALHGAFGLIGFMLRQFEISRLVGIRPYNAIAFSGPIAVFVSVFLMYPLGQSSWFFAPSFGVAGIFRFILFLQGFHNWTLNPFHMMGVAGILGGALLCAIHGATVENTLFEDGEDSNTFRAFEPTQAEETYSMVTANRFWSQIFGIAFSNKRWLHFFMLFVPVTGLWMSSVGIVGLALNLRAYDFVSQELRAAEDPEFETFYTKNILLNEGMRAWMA
UniProt P29255: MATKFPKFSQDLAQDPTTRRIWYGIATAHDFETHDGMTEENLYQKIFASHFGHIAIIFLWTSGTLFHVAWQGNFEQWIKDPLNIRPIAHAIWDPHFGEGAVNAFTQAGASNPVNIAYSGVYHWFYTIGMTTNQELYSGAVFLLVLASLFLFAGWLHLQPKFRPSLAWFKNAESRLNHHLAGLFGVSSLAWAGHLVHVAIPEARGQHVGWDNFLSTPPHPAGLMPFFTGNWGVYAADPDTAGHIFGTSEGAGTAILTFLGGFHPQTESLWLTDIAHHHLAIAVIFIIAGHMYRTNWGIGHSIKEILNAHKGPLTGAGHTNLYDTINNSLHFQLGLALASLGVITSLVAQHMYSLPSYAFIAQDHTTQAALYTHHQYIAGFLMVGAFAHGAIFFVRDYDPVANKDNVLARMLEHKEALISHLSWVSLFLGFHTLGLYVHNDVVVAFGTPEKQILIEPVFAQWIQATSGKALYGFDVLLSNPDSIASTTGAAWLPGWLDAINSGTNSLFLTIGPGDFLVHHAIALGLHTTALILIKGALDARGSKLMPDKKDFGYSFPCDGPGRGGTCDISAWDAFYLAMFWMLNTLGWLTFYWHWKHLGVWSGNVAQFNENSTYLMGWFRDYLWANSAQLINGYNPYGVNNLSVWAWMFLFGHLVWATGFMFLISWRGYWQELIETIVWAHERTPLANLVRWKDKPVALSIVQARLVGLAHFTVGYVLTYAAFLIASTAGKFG

Assay [1] addresses His-tagged D2 reaction center subunit of PSII (Synechocystis sp. PCC 6803) (UniProt P09192). As to the kind of experiment: cryo-EM structure; RCII/PSI complex co-purified from Synechocystis via His-tagged D2; 0.1% FOM; two classes at 3.2 Å and 3.1 Å, PSI-focused map at 2.9 Å; both purified.
The target of assay [2] is PsaB RC subunit of PSI (Synechocystis sp. PCC 6803) (UniProt P29255). The assay is described as above.

No constants are given. Whether binding was seen depends on the method and setting. Some binding calls cover weakened binding; strength is not graded here.

B1: Ycf48 accessory factor (protein, UniProt P73069 29-342)
chain: CSHVPDLAFNPWQEIALETDSTFADIAFTEDPNHGWLVGTKETIFETTDGGDTWEQKLIDLGEEKASFSAVSFSGNEGWITGKPSILLHTTDGGQTWARIPLSEKLPGAPYSIIALGPQTAEMITDLGAIYKTTNGGKNWKALVEGAVGVARTIQRSTDGRYVAVSARGNFYSTWAPGQTEWTPHNRNSSRRLQTMGYGKDGQLWLLARGGQLQFSTDPDAEEWSDVIAPQDKGSWGLLDLSFRTPEEVWVAGASGNLLMSQDGGQTWAKDTGVEDIPANLYRVVFLSPEKGFVLGQDGILLKYNPSTEVAMVP
modifications: lipidation of the Ycf48-Cys29 N-terminal residue
On to B1, for which the binding entry in assay [1] and in assay [2] was “binds” each time.
